Measured values reported in article PMC4520715.
These are yes or no findings as the source states them, for the method shown. Binding seen in cells or lysates may run through a third protein. A result given as binding can be weak or reduced; the word gives no strength. Where a sequence is shown, tags or fusion partners need not be part of it.

Target: T1, Rv2911-V5 (Mycobacterium tuberculosis) (UniProt I6Y204)
T1 sequence: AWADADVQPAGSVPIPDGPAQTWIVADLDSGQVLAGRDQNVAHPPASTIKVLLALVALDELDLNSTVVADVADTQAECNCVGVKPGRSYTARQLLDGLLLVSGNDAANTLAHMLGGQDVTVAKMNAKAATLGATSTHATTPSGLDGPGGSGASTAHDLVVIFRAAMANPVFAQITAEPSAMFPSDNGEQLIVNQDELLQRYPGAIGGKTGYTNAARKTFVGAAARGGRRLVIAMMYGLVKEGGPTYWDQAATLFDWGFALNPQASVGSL
Assay: co-IP

Substance: myc-UBQLN1-ΔUBA (human) (domain or fragment)
- binding: binds
